Some of these results come from one statement about several compounds together. Some compounds share one range, which may span the group rather than tell each member.
Assays:
rat = assay: Mustard oil-induced acute neurogenic inflammation in the paw skin of the rat (Evans blue leakage); type: in vivo; settings: 100 μg/kg p.o. 60 min before 1% mustard oil, vs vehicle-treated control
Protocol: Deep anaesthesia was performed with sodium-thiopental (50 mg/kg i.p.). Both hindlegs of the rats were acutely denervated (the sciatic and the saphenous nerves were cut 30 min before the induction of inflammation) to avoid the influence of reflex mechanisms. Inflammation in the dorsal skin of the hindpaws was evoked by topical application of 1% mustard oil dissolved in paraffin oil. This compound selectively activates capsaicin-sensitive peptidergic fibres through the TRPA1 ion channel, therefore induces acute inflammatory reaction with exclusively neurogenic mechanisms via the release of pro-inflammatory sensory neuropeptides, such as substance P and CGRP. Extravasation of plasma albumin was measured by the Evans blue leakage method (see FIG. 2). Evans blue (50 mg/kg) which binds to plasma albumine, was injected i.v. and neurogenic inflammation was induced 5 min later. Rats were executed by exsanguination 20 min after mustard oil application. The extravasated dye in the paw skin was extracted with formamide for 72 h at room temperature for spectrophotometric determination at 620 nm. The amount of the accumulated Evans blue, which quantitatively correlates with the intensity of plasma extravasation, was expressed as μg dye/g wet skin (Helyes et at, 1997, 2001, 2006; Borzsei et al., 2008).
One hundred and thirty four (134) Wistar rats of both sexes (70 males and 64 females; 220-350 g) kept in the Animal House of the University of Pecs in a temperature-controlled room and provided with a 12-hour light-dark cycle, standard rat chow and water ad libitum were studied in this experimental series. They were divided into 14 experimental groups: 13 for the examined compounds and one vehicle-treated control group, all of them were composed of both males and females equally. The study was undertaken in blocks with 10-14 rats per occasion, the whole data set was obtained during 14 days. The examined compound suspended in methylcellulose (100 μg/kg; 0.2 ml/100 g from the 50 μg/ml solutions) was administered p.o. 60 min before the induction of the inflammation by mustard oil smearing. Rats in the control group were treated with the same volume of the methylcellulose vehicle, there were 3-4 controls every experimental day.
Extravasation of plasma albumin in the dorsal skin of the hindpaws was measured by the Evans blue leakage method. Evans blue (50 mg/kg) which binds to plasma albumine was injected i.v. and acute neurogenic inflammation was induced 5 min later with 1% mustard oil smearing. Rats were exsanguinated 20 min after mustard oil application in deep anaesthesia. The skin of the hindpaws was removed, their weight was measured and the extravasated dye was extracted with formamide at room temperature during 72 h for photometric determination at 620 nm. The amount of the accumulated Evans blue, which quantitatively correlates with the intensity of plasma extravasation, was expressed as μg dye/g wet tissue (Szolcsányi and Barthó 1981; Helyes et al., 1997, 2001, 2006).

[1] = test system: sensory nerve terminals of isolated rat tracheae; assay: Electrical field stimulation-induced release of CGRP from sensory nerve terminals of isolated rat tracheae; settings: 500 nM in stimulated and post-stimulated fractions; significant
Protocol: Rats were exsanguinated in deep anaesthesia (sodium thiopental, 50 mg/kg i.p.), then the whole trachea was removed and cleaned of fat and adhering connective tissues. Tracheae from two rats were placed into the same 1.8 ml organ bath to obtain sufficient amount of released peptide and perfused (1 ml/min) with pH—(7.2) controlled oxygenized Krebs solution for 60 minutes (equilibration period) at 37° C. temperature. After discontinuation of the flow, the solution was changed three times for 8 minutes to produce pre-stimulated, stimulated, post-stimulated fractions. Electrical field stimulation (40 V, 0.1 ms, 10 Hz for 120 s; 1200 pulses) was performed to elicit neurotransmitter release at the beginning of the second 8-minute period. Stimulation with 0.1 ms pulse width selectively activates very fast Na^+ channels which are only present in the membrane of neural structures (Birmingham and Wilson, 1963; Coburn and Tomita 1973; Szolcsányi and Barthó, 1982), therefore it excites nerve endings without influencing other excitable cells in the tracheae such as smooth muscle cells. Therefore, this in vitro system is approprite to study the mechanism of sensory neuropeptide release and examine the effect of compounds acting directly at the sensory nerve terminals
Tracheae excised from 80 male and 80 female Wistar rats (250-380 g) were used altogether in this series of studies, 50-50% females and males were used in all experimental groups. There were 14 groups: 13 for the examined compounds containing 5 experiments performed paralelly in 5 perfusion systems to provide n=5 data per group (10 tracheae per group) and a control group composed of 3 separate experiments done at the beginning, the middle and the end of the total period (n=15, 30 tracheae). The whole data set was obtained in blocks, the total study was performed on 8 experimental days during 4 weeks (2 days per week, Tuesdays and Wednesdays; two groups every occassion). Krebs solution was used in the prestimulated fraction for determining the basal CGRP outflow. During the stimulated and poststimulated fractions the incubation medium contained the examined compound in 500 nM concentration.
CGRP concentration was determined from 400-400 μl samples of the organ bath solutions by means of a selective and sensitive radioimmunoassay method developed in our laboratories and described in details in several previous papers (Nemeth et al. 1998, 1999, 2006; Helyes et al., 1997, 2001, 2006; Borzsei et al., 2008). The released amount of the peptides was calculated as fmol peptide per mg wet tissue (trachea). The absolute EFS-induced CGRP outflow in each experiment was calculated by taking off the basal release measured in the first (pre-stimulated) fraction from the second and third 8-min fractions and then adding these values. The detection limits of the RIA assay was 0.2 fmol/tube.

**Q.** For Cc1c(C)n(Cc2ccccc2)c2ncnc(NCCc3ccc(N)cc3)c12 [Example 1, [2-(4-Amino-phenyl)-ethyl]-(7-benzyl-5,6-dimethyl-7H-pyrrolo[2,3-d]pyrimidin-4-yl)-amine], which “inhibition of acute neurogenic inflammatory response (Evans blue accumulation in hindpaw skin)” value (rat; listed as BST-1693) is on record?
**A.** Its value is 40-70%.

**Q.** For COc1ccc(CCNc2ncnc3c2c(C)c(C)n3Cc2ccccc2)cc1 [Example 2, (7-Benzyl-5,6-dimethyl-7H-pyrrolo[2,3-d]pyrimidin-4-yl)-[2-(4-methoxy-phenyl)-ethyl]-amine], which “inhibition of the stimulation-evoked CGRP release” value [1] is on record?
**A.** The value was 60-80%.

**Q.** With CC(=O)Nc1ccc(CCNc2ncnc3c2c(C)c(C)n3Cc2ccccc2)cc1 [Example 3, N-{4-[2-(7-Benzyl-5,6-dimethyl-7H-pyrrolo[2,3-d]pyrimidin-4-ylamino)-ethyl]-phenyl}-acetamide] as the compound, how does the “inhibition of acute neurogenic inflammatory response (Evans blue accumulation in hindpaw skin)” value (rat) read?
**A.** The value was 40-70%.

**Q.** How did the “inhibition of the stimulation-evoked CGRP release” value [1] turn out when Cc1c(C)n(CCCN(C)C)c2ncnc(NCCc3ccc(N)cc3)c12 [Example 12, [2-(4-Amino-phenyl)-ethyl]-[7-(3-dimethylamino-propyl)-5,6-dimethyl-7H-pyrrolo[2,3-d]pyrimidin-4-yl]-amine] was run?
**A.** Its value is 60-80%.

**Q.** And the “inhibition of acute neurogenic inflammatory response (Evans blue accumulation in hindpaw skin)” value (rat)?
**A.** Its value is 40-70%.

**Q.** For Cc1c(C)n(Cc2ccccc2)c2ncnc(NCCc3cccc(Cl)c3)c12 [Example 39, (7-Benzyl-5,6-dimethyl-7H-pyrrolo[2,3-d]pyrimidin-4-yl)-[2-(3-chloro-phenyl)-ethyl]-amine], which “inhibition of acute neurogenic inflammatory response (Evans blue accumulation in hindpaw skin)” value (rat) is on record?
**A.** The value was 40-70%.

**Q.** COc1cccc(CCNc2ncnc3c2c(C)c(C)n3Cc2ccccc2)c1 [Example 40, (7-Benzyl-5,6-dimethyl-7H-pyrrolo[2,3-d]pyrimidin-4-yl)-[2-(3-methoxy-phenyl)-ethyl]-amine] was tested. Which “inhibition of the stimulation-evoked CGRP release” value [1] did it give?
**A.** The value was 60-80%.

**Q.** And the “inhibition of acute neurogenic inflammatory response (Evans blue accumulation in hindpaw skin)” value (rat)?
**A.** Its value is 40-70%.

**Q.** Which “inhibition of the stimulation-evoked CGRP release” value [1] does the source give for COc1ccc(CCNc2ncnc3c2c(C)c(C)n3CCCN(C)C)cc1 [Example 41, [7-(3-Dimethylamino-propyl)-5,6-dimethyl-7H-pyrrolo[2,3-d]pyrimidin-4-yl]-[2-(4-methoxy-phenyl)-ethyl]-amine] here?
**A.** The value was 60-80%.

**Q.** With Cc1c(C)n(Cc2ccccc2)c2ncnc(NCCc3cccc(F)c3)c12 [Example 43, (7-Benzyl-5,6-dimethyl-7H-pyrrolo[2,3-d]pyrimidin-4-yl)-[2-(3-fluoro-phenyl)-ethyl]-amine] as the compound, how does the “inhibition of acute neurogenic inflammatory response (Evans blue accumulation in hindpaw skin)” value (rat) read?
**A.** The value was 40-70%.

**Q.** CC(=O)Nc1ccc(CCNc2ncnc3c2c(C)c(C)n3CCCN(C)C)cc1 [Example 51, N-(4-{2-[7-(3-Dimethylamino-propyl)-5,6-dimethyl-7H-pyrrolo[2,3-d]pyrimidin-4-ylamino]-ethyl}-phenyl)-acetamide] was tested. Which “inhibition of the stimulation-evoked CGRP release” value [1] did it give?
**A.** Its value is 60-80%.

**Q.** For Cc1c(C)n(Cc2ccccc2)c2ncnc(NCCc3ccc(N(C)C)cc3)c12 [Example 62, (7-Benzyl-5,6-dimethyl-7H-pyrrolo[2,3-d]pyrimidin-4-yl)-[2-(4-dimethylamino-phenyl)-ethyl]-amine], which “inhibition of acute neurogenic inflammatory response (Evans blue accumulation in hindpaw skin)” value (rat) is on record?
**A.** Its value is 40-70%.

— patent US10344032B2, “Agents for treating neurogenic inflammation and neuropathic hyperalgesia related disorders” (PÉCSI TUDOMÁNYEGYETEM, priority 2014, dated 2019)
